The data set is described as follows: Fluorescence intensity of fluorescein linker derivatives and streptavidine conjugates in solution. It counts as physicochemical. To be noted: for Intensity at 520 nm (arbitrary units): 100 nM total fluorescein in 150 mM carbonate pH 8, excited at 488 nm; for relative intensity for each flurescein: normalised to 100 nM free carboxy fluorescein, 150 mM carbonate pH 8, 488/520 nm; for total intensity for compound = relative intensity × number of fluresceins: normalised to free carboxy fluorescein.

“Flu-L90-Lys(Flu)-L90-Lys(Flu)-L60-Lys(betaala)-Lys(betaala)-NH2 [Linker derivative 9]”: the “Intensity at 520 nm (arbitrary units)” value worked out at 517 arbitrary units, the “relative intensity for each flurescein” value amounted to 0.58 and the “total intensity for compound = relative intensity × number of fluresceins” value was found to be 1.75.

Regarding “Flu-L120-Lys(Flu)-L120-Lys(Flu)-L120-Lys(Flu)120-Lys(betaala)-Lys(betaala)-NH2 [Linker derivative 11]”, the “Intensity at 520 nm (arbitrary units)” value was 535 arbitrary units, the “relative intensity for each flurescein” value is on record as 0.61 and the “total intensity for compound = relative intensity × number of fluresceins” value amounted to 2.42.

As for “carboxy fluorescein [reference compound]”, the “Intensity at 520 nm (arbitrary units)” value stood at 884 arbitrary units, the “relative intensity for each flurescein” value is 1.000 (reference) and the “total intensity for compound = relative intensity × number of fluresceins” value is recorded as 1.000 (refer.

The values above are taken from patent US9598720B2, “Monomeric and polymeric linkers useful for conjugating biological molecules and other substances” (DAKO Denmark A/S, priority 2005, dated 2017).
